The values that follow come from patent US20080038277A1, “Dna Pkinase Inhibitors For Treating Cancer And Diabetes” (priority 2004, published 2008).

In this assay the test system is S473K2. The following applies: data not shown.

`CN[C@@H]1C[C@H]2O[C@@](C)([C@@H]1OC)n1c3ccccc3c3c4c(c5c6ccccc6n2c5c31)C(=O)NC4` [staurosporine]: the “S473K2 fraction sensitivity to inhibitor” value is “sensitive”.
